In patent US9382230B2, “Methods and compositions for modulating Ire1, SRC and ABL activity” (The Regents of the University of California, priority 2008, dated 2016):
For at least one compound, name, drawing or mass did not settle the structure.

Molecular target: T1, Ire1KR32 (Saccharomyces cerevisiae, UniProt P32361)
T1 construct: Overview of the Ire1 constructs; GST (N); made in house; host or cells: E. coli BL21 CodonPlus (RIPL)
T1 sequence (P32361 with tags, fused parts or gaps): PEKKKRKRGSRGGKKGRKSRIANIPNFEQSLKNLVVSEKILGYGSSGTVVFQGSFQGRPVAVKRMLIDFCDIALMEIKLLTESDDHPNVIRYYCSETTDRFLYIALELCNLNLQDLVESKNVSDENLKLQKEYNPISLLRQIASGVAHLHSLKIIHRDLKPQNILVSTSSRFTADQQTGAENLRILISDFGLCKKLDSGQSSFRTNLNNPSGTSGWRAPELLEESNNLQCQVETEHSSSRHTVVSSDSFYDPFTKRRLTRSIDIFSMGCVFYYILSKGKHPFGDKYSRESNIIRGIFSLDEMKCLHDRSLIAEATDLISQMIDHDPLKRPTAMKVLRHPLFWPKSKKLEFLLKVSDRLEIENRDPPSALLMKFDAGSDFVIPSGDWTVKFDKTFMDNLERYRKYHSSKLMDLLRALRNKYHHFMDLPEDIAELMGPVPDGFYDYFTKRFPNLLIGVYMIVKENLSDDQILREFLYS
Assay: RNase cleavage assay with Ire1 cytosolic constructs (Ire1KR32), co-factors and kinase inhibitors
Type: biochemical
Conditions: FIG. 3A
Experimental: RNA cleavage reactions were conducted at 30° C. in buffer containing 20 mM HEPES (pH 7.5), 70 mM NaCl, 2 mM ADP (pH 7.0), 2 mM Mg(OAc)2, 5 mM DTT, 5% glycerol, less than 1 nM ^32p-labeled RNA substrate, and 3 nM-20 μM Ire1. Reaction solutions and buffers were designed using Biochem Lab Solutions 3.5. Reactions were prepared such that 1 μl of RNA was added to 9 μl of pre-warmed reaction mixture containing all components except RNA. Typically, 3-10 minute time courses were collected starting from 5 seconds for the first time point. At time intervals, 1 μl of solution was withdrawn from each reaction and mixed wish 6 μl stop solution containing 10 M urea, 0.1% SDS, 0.1 mM EDTA, 0.05% xylene cyanol, and 0.05% bromophenol blue. The samples were separated by a denaturing 10% PAGE and exposed on a phosphor storage screen. The screens were scanned on a Storm or a Typhoon instrument and quantified using ImageQuant 5.0 or GelQuant.NET 1.4 programs. The data were plotted and fit in SigmaPlot 6.0. […]
Crystals obtained with the inhibitor APY29 allowed the structure determination of the Ire1KR32-APY29 complex at 3.9 Å resolution. […] AIN54 could not be readily fit to the ATP pocket due to steric clashes arising partly because of the unusual position of beta strand β1 that covers the nucleotide-binding pocket of the Ire1 kinase. […]

CCN(CC)CCNC(=O)c1c(C)[nH]c(/C=C2\C(=O)Nc3ccc(F)cc32)c1C [sunitinib, N-[2-(diethylamino)ethyl]-5-[(Z)-(5-fluoro-1,2-dihydro-2-oxo-3H-indol-3-ylidine)methyl]-2,4-dimethyl-1H-pyrrole-3-carboxamide]
activation of the RNase of Ire1KR32: only a partial activation | binding to Ire1: fairly good binding
